# Test results taken from paper PMC7819943, “Rice protein-binding microarrays: a tool to detect cis-acting elements near promoter regions in rice”.
# Amino acid sequences for entries named in this document (tags omitted).
# UniProt Q0JBA9, entry or part of it: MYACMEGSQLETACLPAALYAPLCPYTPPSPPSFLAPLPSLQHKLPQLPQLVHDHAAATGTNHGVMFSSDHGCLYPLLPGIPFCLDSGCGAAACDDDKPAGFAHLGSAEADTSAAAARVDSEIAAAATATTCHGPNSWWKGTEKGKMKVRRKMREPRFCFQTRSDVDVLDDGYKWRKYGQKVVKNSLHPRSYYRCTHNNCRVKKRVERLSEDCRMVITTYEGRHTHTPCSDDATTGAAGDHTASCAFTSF
# Some of the results follow.
# Molecular target: OsWRKY34 (Oryza sativa, UniProt Q0JBA9 1-250)
# Assay: protein-binding microarray (RPBM); PBS, 2% BSA, 51.3 ng/ul salmon testes DNA, 50 uM zinc acetate, 200 nM TF, 25 C, 1 h; high values mean tight binding
# Settings: protein: recombinant; tags: N-terminal polyhistidine and DsRed monomer fusion (pET32a); label: CyDye5-dUTP incorporated in the synthesized complementary strand; 3' TTTTT single-stranded linker to array surface; dsDNA, one strand shown
# Procedure, shortened: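 Per-feature fluorescence intensity (arbitrary units), read on an Axon 4000B scanner, is the binding signal. Transcription factors carrying an N-terminal polyhistidine tag and DsRed fusion were expressed in E. coli BL21-CodonPlus and purified on Ni–NTA. A custom Agilent array, made double-stranded by primer extension with Cy5-dUTP and blocked with 2% BSA, was incubated with 200 nM protein in PBS, 2% BSA, salmon testes DNA and 50 µM zinc acetate at 25 °C for 1 h and then washed.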
row,Sequence,binding signal
1,GACCATAAAGTAGGCCGTGACTGACATTCAGTTGTTTTACCGGAGTCACCTAGTGCAG,8030 fluorescence intensity (a.u.)
2,CCCAACTTTTCCACAATCCACAGCCTACATACACCGAGCACGGAGTCACCTAGTGCAG,8300 fluorescence intensity (a.u.)
3,CATGTCGGCCCATGTGAAAGCCATCTTCGCTTTTCTCTCCCGGAGTCACCTAGTGCAG,8570 fluorescence intensity (a.u.)
4,AGACCACCACCTCCACCGCTGTCCGCGGCGACGGCAACCGCGGAGTCACCTAGTGCAG,8200 fluorescence intensity (a.u.)
5,TGCAAACACATTTAAACAGAAGTCAGCATACCATATCTATCGGAGTCACCTAGTGCAG,8050 fluorescence intensity (a.u.)
6,ACTGTGAATGTGTGACTAAATGGGCCGAGCCCAACTACTACGGAGTCACCTAGTGCAG,9860 fluorescence intensity (a.u.)
7,CCAACTTCATGGCCAACCCACAATTCTGAATTCCACATGACGGAGTCACCTAGTGCAG,9060 fluorescence intensity (a.u.)
8,TGTGTTCGCCATCGATATCTGGTTGTAGGCACGTTGCATGCGGAGTCACCTAGTGCAG,9520 fluorescence intensity (a.u.)
9,ATGAAACTAATTTAATGCTTTAAGTGTGTACTACATTTTTCGGAGTCACCTAGTGCAG,8170 fluorescence intensity (a.u.)
10,CCTGCGGATGCCATCCGTTGACTCCCGCATCCAGCTTCGCCGGAGTCACCTAGTGCAG,9170 fluorescence intensity (a.u.)
11,TCTTACTTGCATGTGAACACCTCTTTGTCGGTTTTTCCATCGGAGTCACCTAGTGCAG,10400 fluorescence intensity (a.u.)
12,ATCTGTGCAAGTTTAAACACCGTCCATGCACTTCACTCAACGGAGTCACCTAGTGCAG,8320 fluorescence intensity (a.u.)
13,AGTCTCACGGTTTCTGCTTTCCACATCCGCCGCGGCCATGCGGAGTCACCTAGTGCAG,9010 fluorescence intensity (a.u.)
14,TTTGGGTGTTAGTGTCTTAATTAGTGTGTGAGCCCCATCCCGGAGTCACCTAGTGCAG,8880 fluorescence intensity (a.u.)
15,CTCTTCTTCCTCGCCTCCGCGGGCTCCTTCTCCTTCTGGACGGAGTCACCTAGTGCAG,8720 fluorescence intensity (a.u.)
16,CTCTTCACATAAGATGCCATCTCTTCTATCCATGCCTACACGGAGTCACCTAGTGCAG,11300 fluorescence intensity (a.u.)
17,CGCATTCTTTTTTTCTTTTTTTTCTTCTCCCTCGCACATGCGGAGTCACCTAGTGCAG,10200 fluorescence intensity (a.u.)
18,GGTGTGATACCACGATACGTATCCTGATACTGACAACCTTCGGAGTCACCTAGTGCAG,8360 fluorescence intensity (a.u.)
19,TTAAAACATGTTTCCATTATTTGATATCTTAACCTACCTTCGGAGTCACCTAGTGCAG,8030 fluorescence intensity (a.u.)
20,CTCTTCCTTATCTCTTGTACTCTCTATATACACCGCCTCTCGGAGTCACCTAGTGCAG,11500 fluorescence intensity (a.u.)
21,GCGGCTGTACTTTGGGTTAGCTTGACTTTTTAATTGCATACGGAGTCACCTAGTGCAG,10800 fluorescence intensity (a.u.)

# Looked up one by one from above (4):
row,Sequence,binding signal
5,TGCAAACACATTTAAACAGAAGTCAGCATACCATATCTATCGGAGTCACCTAGTGCAG,8050 fluorescence intensity (a.u.)
8,TGTGTTCGCCATCGATATCTGGTTGTAGGCACGTTGCATGCGGAGTCACCTAGTGCAG,9520 fluorescence intensity (a.u.)
2,CCCAACTTTTCCACAATCCACAGCCTACATACACCGAGCACGGAGTCACCTAGTGCAG,8300 fluorescence intensity (a.u.)
14,TTTGGGTGTTAGTGTCTTAATTAGTGTGTGAGCCCCATCCCGGAGTCACCTAGTGCAG,8880 fluorescence intensity (a.u.)

# Remaining list, next part:

row,Sequence,binding signal
1,GTACTTTTCTTCCCAGCTACCCAGGTCTTGATCTGAAATCCGGAGTCACCTAGTGCAG,8340 fluorescence intensity (a.u.)
2,GAATCTCAATTCTGGGGTTTGGATTTGGTGTTGCGTCCGGCGGAGTCACCTAGTGCAG,8810 fluorescence intensity (a.u.)
3,TCATTTCTTCCCGATCTGTCCCGTCCCGTCCCGTCCCGTCCGGAGTCACCTAGTGCAG,11000 fluorescence intensity (a.u.)
4,GGTATTTTCAATAGTGTTTAGTGTGTATTTGGTTTGAAGCCGGAGTCACCTAGTGCAG,9520 fluorescence intensity (a.u.)
5,CCGCTCACCTTGCCTCGTTACCCACCTCTTGTGGCTCACCCGGAGTCACCTAGTGCAG,8720 fluorescence intensity (a.u.)
6,TCATCCCGTTGATATATATTCTGTCATTATAAGTTTCATACGGAGTCACCTAGTGCAG,8710 fluorescence intensity (a.u.)
7,CCCCACGTCGGAGCTCATTGCCAGCGGCCGCGTCCTCCTTCGGAGTCACCTAGTGCAG,9600 fluorescence intensity (a.u.)
8,CGCTTATTCTTATACTTATCAGCTAAAATTTAAATTTTCACGGAGTCACCTAGTGCAG,10900 fluorescence intensity (a.u.)
9,ATTCGAAAGTCTAAGTTGTATTTTCTCCGGTTCCATATATCGGAGTCACCTAGTGCAG,9350 fluorescence intensity (a.u.)
10,GAGTTGTAAAGCTTTTGACCGGTTTCTAATCAACACATACCGGAGTCACCTAGTGCAG,8350 fluorescence intensity (a.u.)
11,CAGCCACCATCTCAGCCCAAGTGCGTCTGTCCGCTGTGTTCGGAGTCACCTAGTGCAG,8380 fluorescence intensity (a.u.)
12,CATCGCGACCATCCGTGGTTCTCTAAAATTTTGACCATAACGGAGTCACCTAGTGCAG,8360 fluorescence intensity (a.u.)
13,GGTTTCCCAACTTGTGATTTTTTTGTCCATTTTCTGGATTCGGAGTCACCTAGTGCAG,8760 fluorescence intensity (a.u.)
14,TTCACTGTCGGTCGCCTCTACCACCATCAATTGGTCTTCTCGGAGTCACCTAGTGCAG,8380 fluorescence intensity (a.u.)
15,ACTACATACCCTGTTTTTTTTTTCTTTTTACTCTTTGATGCGGAGTCACCTAGTGCAG,9560 fluorescence intensity (a.u.)
16,GCGTCCAGCCGCGGCCCGCCCGACCACCTTTTCACCTCCGCGGAGTCACCTAGTGCAG,8460 fluorescence intensity (a.u.)
17,GTTGACTTTTTTAAACATGTTGGACCGTTCGTCTTATTCACGGAGTCACCTAGTGCAG,9150 fluorescence intensity (a.u.)
18,AAAACATTTCCCTAGCCATTAATCTCACCGTCATTCTCTTCGGAGTCACCTAGTGCAG,9480 fluorescence intensity (a.u.)
19,GGGCGGGCGGGCTCGAGGTTGTGGTGGGGCGTGTGGCAGGCGGAGTCACCTAGTGCAG,18200 fluorescence intensity (a.u.)
20,GGCCCACATGTAGATTACACTACCGTTCCAGACCAACATACGGAGTCACCTAGTGCAG,8240 fluorescence intensity (a.u.)
21,GTCGATTTTCTTGGTTCTTTGTGCCCTAGACTGCTACCTGCGGAGTCACCTAGTGCAG,10500 fluorescence intensity (a.u.)

row,Sequence,binding signal
1,ATGTACTCGTGTGGTTTCCGATGTCAATTTCCATAGCGTTCGGAGTCACCTAGTGCAG,8530 fluorescence intensity (a.u.)
2,CGCATTCATGACTTCTTGTTTGTTTTAACCTCCATATGTTCGGAGTCACCTAGTGCAG,10100 fluorescence intensity (a.u.)
3,TTTCTGCATGAAATTAGTGGATCTGTGTTGTTTTCGGTGTCGGAGTCACCTAGTGCAG,8140 fluorescence intensity (a.u.)
4,GGGAGGAGTGGGAGGAGGAGGGCGATAGGGAGAGGGAGGACGGAGTCACCTAGTGCAG,8800 fluorescence intensity (a.u.)
5,ATCTGTTCCTTGTTGATCTACTAGAATATTTCTCCTTTTTCGGAGTCACCTAGTGCAG,8400 fluorescence intensity (a.u.)
6,AAAATCACTCTACCTACTGTACTCTACCTACTGTTACTTTCGGAGTCACCTAGTGCAG,13200 fluorescence intensity (a.u.)
7,ATGTTTTTCTTTTTCTTTTTGATTTTTAAACCAAATTGTTCGGAGTCACCTAGTGCAG,10000 fluorescence intensity (a.u.)
8,GGATTACATGGAACCTGATACTATTTGCTTGACCATATGTCGGAGTCACCTAGTGCAG,8380 fluorescence intensity (a.u.)
9,AATTGATTTAATTACTGGGTATTTTATGTTAGTGGACTTCCGGAGTCACCTAGTGCAG,8860 fluorescence intensity (a.u.)
10,TTTTTCTTTTTATTGTCTTGTTCTCGTGCGTGTTGAAAAACGGAGTCACCTAGTGCAG,20300 fluorescence intensity (a.u.)
11,CCTTACAAGACATCAGTGCTCGACTACATATGTACTACTACGGAGTCACCTAGTGCAG,8460 fluorescence intensity (a.u.)
12,ACTTTCCTCTCGGAGTATCGGTAATCTTTCGTTACGTTTTCGGAGTCACCTAGTGCAG,8280 fluorescence intensity (a.u.)
13,GCATGCCAACACACCTACGTTCGCTTCATAACTCCACAAGCGGAGTCACCTAGTGCAG,8800 fluorescence intensity (a.u.)
14,ACTTCCAAACCGTCCAGCATACCGCACCAACCCTGAAGAACGGAGTCACCTAGTGCAG,8200 fluorescence intensity (a.u.)
15,GTTCTCACGGCTTAGTTTTCTGCTTTGCAGGCTTCAACAGCGGAGTCACCTAGTGCAG,8170 fluorescence intensity (a.u.)
16,GATGGAGAGGCTGTTGGAGTAAATAACTAGTTTGACTAGCCGGAGTCACCTAGTGCAG,8630 fluorescence intensity (a.u.)
17,TATCTACAAATTTAGTCAAACTTAAAGCAGTTTGACTTTACGGAGTCACCTAGTGCAG,11500 fluorescence intensity (a.u.)
18,CGCTCCTACACCGTCCGCCATAGCGATTCCCTTCCATCTCCGGAGTCACCTAGTGCAG,8780 fluorescence intensity (a.u.)
19,TAGGTTGTTTATTCTATCTTTTTTTGTTCTTATCAAACTACGGAGTCACCTAGTGCAG,8330 fluorescence intensity (a.u.)
20,GCGTTCCGGGAATTCTTCAACTGGGTCACACCACACGTCTCGGAGTCACCTAGTGCAG,10200 fluorescence intensity (a.u.)
21,GCATGAACCTCTGTCACCCTGTGAGACCACTCCAAACCTTCGGAGTCACCTAGTGCAG,8450 fluorescence intensity (a.u.)

row,Sequence,binding signal
1,CAAAGGCGGCAACGGCGGGGATGTGTGGGGAGGCGGCGGACGGAGTCACCTAGTGCAG,9250 fluorescence intensity (a.u.)
2,ACTAGACGTTTTATTTGTTTTGTTGATTATAATTAAACACCGGAGTCACCTAGTGCAG,8270 fluorescence intensity (a.u.)
3,TGGGTCTCTTGGGGTCGGTGGGGCGGTCGTCGTCCGTGCCCGGAGTCACCTAGTGCAG,11400 fluorescence intensity (a.u.)
4,GATGGAGTAGTTGCTTCGGACACCAACAACTTCTTTGCAACGGAGTCACCTAGTGCAG,8220 fluorescence intensity (a.u.)
5,GAGGCCATTGCACCAGCACGAATCACGAGGCAGATATTACCGGAGTCACCTAGTGCAG,8260 fluorescence intensity (a.u.)
6,CACTCTGCAGCTCTGCTCGTTTTGCACACGGGTGACTCGTCGGAGTCACCTAGTGCAG,9700 fluorescence intensity (a.u.)
7,GTGTTCTTTGTGGTTTTTGTTAATGTCTTTACTAGTTTTTCGGAGTCACCTAGTGCAG,14600 fluorescence intensity (a.u.)
8,TGCTGGGTTTGTGCGATTCGGATTTGGGTTCGGGGCCGGTCGGAGTCACCTAGTGCAG,9330 fluorescence intensity (a.u.)
9,GCGTAAGGTCTCTGATGTTCTCTTCTTTTGTACCGTTCATCGGAGTCACCTAGTGCAG,11300 fluorescence intensity (a.u.)
10,AAAATGAAAAATTCGTAATGTGTTTCTTTTATATCATTTTCGGAGTCACCTAGTGCAG,8250 fluorescence intensity (a.u.)
11,GCATCCCTATCGCAGAAGTCAAACCGGGCGGGGCCCATTCCGGAGTCACCTAGTGCAG,8120 fluorescence intensity (a.u.)
12,GCTCTCTTCTCGCCGCCTCGGCCTCGCCGCCGTGGCCGCCCGGAGTCACCTAGTGCAG,9500 fluorescence intensity (a.u.)
13,GTTGATACAGTGTCTCCCACTGAACGGCGACCACAGCTCACGGAGTCACCTAGTGCAG,8190 fluorescence intensity (a.u.)
14,GTGCATAGGGTTTCCGACTGGAATTGGGTTGGAGGGGCTTCGGAGTCACCTAGTGCAG,8120 fluorescence intensity (a.u.)
15,ACGGCATCAAATCTCTGTTTGTACATGTGCCCCTGTTCTTCGGAGTCACCTAGTGCAG,9440 fluorescence intensity (a.u.)
16,TTCATATTTCAATTTTCCTGTCATTGGTACTTTCACAATCCGGAGTCACCTAGTGCAG,8090 fluorescence intensity (a.u.)
17,CCGGGCCTAATATTCTCCCCTTGTCCCCATCATCGCTTGCCGGAGTCACCTAGTGCAG,8140 fluorescence intensity (a.u.)
18,CTACTAACTTCATATTTTAATGTATGATGCTGTTGACTTTCGGAGTCACCTAGTGCAG,9630 fluorescence intensity (a.u.)
19,ACGGCAATACCTGAAGCGACAATTGTTCTGAAACAAACCGCGGAGTCACCTAGTGCAG,8100 fluorescence intensity (a.u.)
20,ATGAACTTTGTACCGCATATTGATCTCTTACTAACTTACCCGGAGTCACCTAGTGCAG,10900 fluorescence intensity (a.u.)
21,CACCGTCTCCCTCCGCCGCCATCGTCGTCCCCGTCGCTTCCGGAGTCACCTAGTGCAG,8060 fluorescence intensity (a.u.)
